Test results published in patent US20170137467A1.
No constants are given. Whether binding was seen depends on the method and setting. For part of these data: Binding seen in cells or lysates may run through a third protein. Some entries that bind do so weakly or less than the wild type. For part of these data: Tags and fused reporters may be left off the sequences shown.

Tests used:
[1] = target: T1, GFP with C-terminal BC2T-8 tag (GFPBC2T-8) (human); assay: immunoprecipitation from E. coli lysate, Western blot with anti-GFP, FIG. 12
T1 sequence: RKAAVSHW

[2] = target: T2, GFP with C-terminal BC2T-10 tag (GFPBC2T-10) (human); assay: as above
T2 sequence: PDRKAAVSHW

neg CTR = target: T3, neg CTR; assay: pepscan: Myc-peptide on OVA-microspheres as negative control, biotinylated BC2-Nb, streptavidin-PE
T3 sequence (peptide): EQKLISEEDL

[3] = target: T4, BC2T S8V peptide (BC2TS8X library) (human); assay: positional scanning library pulldown with immobilized Nb, LC-MS of the supernatant
T4 sequence (peptide, N-terminal acetyl, C-terminal amide): PDRKAAVVHWQQ

[4] = target: T5, BC2T A6V peptide (BC2TA6X library) (human); assay: as above
T5 sequence (peptide, N-terminal acetyl, C-terminal amide): PDRKAVVSHWQQ

[5] = target: T6, BC2T R3V peptide (BC2TR3X library) (human); assay: as above
T6 sequence (peptide, N-terminal acetyl, C-terminal amide): PDVKAAVSHWQQ

[6] = target: T7, BC2T R3H peptide (BC2TR3X library) (human); assay: as above
T7 sequence (peptide, N-terminal acetyl, C-terminal amide): PDHKAAVSHWQQ

[7] = target: T8, BC2T A6S peptide (BC2TA6X library) (human); assay: as above
T8 sequence (peptide, N-terminal acetyl, C-terminal amide): PDRKASVSHWQQ

[8] = target: T9, BC2T S8A peptide (BC2TS8X library) (human); assay: as above
T9 sequence (peptide, N-terminal acetyl, C-terminal amide): PDRKAAVAHWQQ

[9] = target: T10, BC2T S8T peptide (BC2TS8X library) (human); assay: as above
T10 sequence (peptide, N-terminal acetyl, C-terminal amide): PDRKAAVTHWQQ

[10] = target: T11, BC2T A6T peptide (BC2TA6X library) (human); assay: as above
T11 sequence (peptide, N-terminal acetyl, C-terminal amide): PDRKATVSHWQQ

[11] = target: T12, BC2T R3T peptide (BC2TR3X library) (human); assay: as above
T12 sequence (peptide, N-terminal acetyl, C-terminal amide): PDTKAAVSHWQQ

[12] = target: T13, BC2T R3K peptide (BC2TR3X library) (human); assay: as above
T13 sequence (peptide, N-terminal acetyl, C-terminal amide): PDKKAAVSHWQQ

[13] = target: T1, GFP with C-terminal BC2T-8 tag (GFPBC2T-8) (human); assay: pulldown from E. coli lysate, immunoblot with anti-GFP
[14] = target: T2, GFP with C-terminal BC2T-10 tag (GFPBC2T-10) (human); assay: as above

- binding [1]: binds
- binding [2]: binds
- binding (neg CTR): no binding (tested: 1 µg/ml BC2-Nb)
- binding [3]: binds
- binding [4]: binds
- binding [5]: binds
- binding [6]: binds
- binding [7]: binds
- binding [8]: binds
- binding [9]: binds
- binding [10]: binds
- binding [11]: binds
- binding [12]: binds
- binding [13]: binds
- binding [14]: binds
B1: BC2 nanobody (VHH, not shown: small tags and cut ends)
VHH: QVQLVESGGGLVQPGGSLTLSCTASGFTLDHYDIGWFRQAPGKEREGVSCINNSDDDTYYADSVKGRFTIFMDNAKDTVYLQMNSLKPEDTAIYYCAEARGCKRGRYEYDFWGQGTQVTVSS
